Results from article PMC11178898, “A clade of receptor-like cytoplasmic kinases and 14-3-3 proteins coordinate inositol hexaphosphate accumulation” (Nature Communications, 2024).
Results are given in words; binding and its absence hold for the method and conditions named. Binding calls can cover weak binding; strength is not graded here. Tags and fused reporters may be left off the sequences shown. For some of these results: Binding seen in cells or lysates may run through a third protein.

What was measured:
[1] = biological target: T1, GRF4, Split-LUC fusion (Arabidopsis thaliana) (UniProt P46077); assay: split reporter; Split-LUC; X-nLUC and X-cLUC constructs co-infiltrated into tobacco leaves, LUC activity with D-luciferin; in Figs. 5a, 6f, 7c with or without IPCK1
T1 sequence: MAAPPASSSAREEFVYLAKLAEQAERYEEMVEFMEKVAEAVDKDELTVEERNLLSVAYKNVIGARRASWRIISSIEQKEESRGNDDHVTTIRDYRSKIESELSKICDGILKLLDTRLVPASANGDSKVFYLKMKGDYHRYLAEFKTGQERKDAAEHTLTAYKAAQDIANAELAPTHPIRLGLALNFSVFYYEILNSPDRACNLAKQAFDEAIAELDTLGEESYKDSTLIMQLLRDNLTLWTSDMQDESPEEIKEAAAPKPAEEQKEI

[2] = biological target: IPCK1, BiFC fusion (Arabidopsis thaliana); assay: split reporter; BiFC; constructs transiently expressed in Arabidopsis mesophyll protoplasts, confocal imaging
[3] = biological target: IPCK4, BiFC fusion (Arabidopsis thaliana); assay: as above
[4] = biological target: IPCK3, BiFC fusion (Arabidopsis thaliana); assay: as above
[5] = biological target: IPCK1 N terminal (1-153 amino acids), BiFC fusion (Arabidopsis thaliana); assay: as above
[6] = biological target: IPCK2, BiFC fusion (Arabidopsis thaliana); assay: as above
[7] = biological target: IPCK5, BiFC fusion (Arabidopsis thaliana); assay: as above
[8] = biological target: IPCK6, BiFC fusion (Arabidopsis thaliana); assay: as above
[9] = biological target: IPCK1-GST (Arabidopsis thaliana); assay: pull-down; in vitro; GST- and HIS-tagged proteins from E. coli BL21 (DE3); bait on GST or Ni-NTA beads, incubated with the protein of the other tag on ice for 2 h, washed with PBS, blot with anti-HIS and anti-GST; both purified
[10] = biological target: IPCK1 N terminal (1-153 amino acids), Split-LUC fusion (Arabidopsis thaliana); assay: split reporter; Split-LUC; X-nLUC and X-cLUC constructs co-infiltrated into tobacco leaves, LUC activity with D-luciferin; in Figs. 5a, 6f, 7c with or without IPCK1
[11] = biological target: IPCK1, Split-LUC fusion (Arabidopsis thaliana); assay: as above

Q: With “IPK2β, Split-LUC fusion (Arabidopsis thaliana)” as the molecule, how does the binding [1] read?
A: The binding was “binds”.

B1: IPK1, BiFC fusion (protein, UniProt Q93YN9 1-451)
chain: MEMILEEKDASDWIYRGEGGANLVLAYAGSSPLFVGKVIRIQKARRNDKAIKNANGVVSVLTSDEQHLWRENNELISSPNKEVLEQRYVKNVIIPLLGPKHVDAGVRVSVSKEFLECVDKKVTKQRPLWRVNAANVDTSHDSALILNDHSLFSQGISSGGDCISVEIKPKCGFLPTSRFIGKENMLKTSVSRFKMHQLLKLEYNEISEESEYDPLDLFSGSKESVLEAIKALYSTPQNNFRVFLNGSLILGGSGESTGRTSPEIGYAFEDALKGFIQSEDGHRTECFLQLVSDAVYGSGVLDRLLEIQKLDKLDIEGAIHSYYDLINQPCPICKEGKPLEAELSLHALPLDESLKIVKEYLIAATAKDCSIMISFQSRNAWDSEPSGDYVSLKPTNQTFDYKVHFIDLSLKPLKRMESYYKLDKKIISFYNRKQKAENTAEQIGNSKPSHS
Q: Which binding [2] does the source give for B1 here?
A: Its binding is “binds”.

Q: And the binding [3]?
A: Its binding is “binds”.

Q: What about the binding [4] of the same molecule?
A: The binding was “binds”.

Q: And the binding [5]?
A: The binding was “binds”.

Q: What about the binding [6] of the same molecule?
A: The binding was “binds”.

Q: And the binding [7]?
A: The binding was “binds”.

Q: What about the binding [8] of the same molecule?
A: Its binding is “binds”.

B2: GRF4, BiFC fusion (protein, UniProt P46077 1-267)
chain: T1 sequence
Q: Which binding [2] does the source give for B2 here?
A: The binding was “binds”.

B3: PI-PLC2, BiFC fusion (protein, UniProt Q39033 1-581)
chain: MSKQTYKVCFCFRRRFRYTASEAPREIKTIFEKYSENGVMTVDHLHRFLIDVQKQDKATREDAQSIINSASSLLHRNGLHLDAFFKYLFGDNNPPLALHKVHHDMDAPISHYFIFTGHNSYLTGNQLSSDCSEVPIIDALKKGVRVIELDIWPNSNKDDIDVLHGMTLTTPVGLIKCLKAIRAHAFDVSDYPVVVTLEDHLTPDLQSKVAEMVTEIFGEILFTPPVGESLKEFPSPNSLKRRIIISTKPPKEYKEGKDVEVVQKGKDLGDEEVWGREVPSFIQRNKSEAKDDLDGNDDDDDDDDEDKSKINAPPQYKHLIAIHAGKPKGGITECLKVDPDKVRRLSLSEEQLEKAAEKYAKQIVRFTQHNLLRIYPKGTRVTSSNYNPLVGWSHGAQMVAFNMQGYGRSLWLMQGMFRANGGCGYIKKPDLLLKSGSDSDIFDPKATLPVKTTLRVTVYMGEGWYFDFRHTHFDQYSPPDFYTRVGIAGVPGDTVMKKTKTLEDNWIPAWDEVFEFPLTVPELALLRLEVHEYDMSEKDDFGGQTCLPVWELSEGIRAFPLHSRKGEKYKSVKLLVKVEFV
Q: For B3, which binding [2] is on record?
A: The binding was “binds”.

B4: IPK1-HIS (enzyme, UniProt Q93YN9 1-451)
chain: B1 chain
Q: How did the binding [9] turn out when B4 was run?
A: Its binding is “binds”.

B5: GRF4-HIS (protein, UniProt P46077 1-267)
chain: T1 sequence
Q: For B5, which binding [9] is on record?
A: The binding was “binds”.

B6: IPK1, Split-LUC fusion (protein, UniProt Q93YN9 1-451)
chain: B1 chain
Q: Which binding [10] does the source give for B6 here?
A: The binding was “binds”.

Q: And the binding [11]?
A: Its binding is “binds”.

B7: GRF4, Split-LUC fusion (protein, UniProt P46077 1-267)
chain: T1 sequence
Q: Which binding [11] does the source give for B7 here?
A: The binding was “binds”.

B8: PI-PLC2, Split-LUC fusion (protein, UniProt Q39033 1-581)
chain: B3 chain
Q: For B8, which binding [11] is on record?
A: The binding was “binds”.
